Results are given in words; binding and its absence hold for the method and conditions named. Some results given as binding are weak or reduced against the parent protein; the word gives no strength. Tags and fused reporters may be left off the sequences shown.
How the values were obtained:
[1] = target: T1, Flt3D1-D3, recombinant human Flt3 ectodomain variant (residues 27-346) with C-terminal hexahistidine tag (human) (UniProt P36888); test: ITC
T1 sequence (chain, N-linked glycosylation (glycosylated protein from HEK293 cells)): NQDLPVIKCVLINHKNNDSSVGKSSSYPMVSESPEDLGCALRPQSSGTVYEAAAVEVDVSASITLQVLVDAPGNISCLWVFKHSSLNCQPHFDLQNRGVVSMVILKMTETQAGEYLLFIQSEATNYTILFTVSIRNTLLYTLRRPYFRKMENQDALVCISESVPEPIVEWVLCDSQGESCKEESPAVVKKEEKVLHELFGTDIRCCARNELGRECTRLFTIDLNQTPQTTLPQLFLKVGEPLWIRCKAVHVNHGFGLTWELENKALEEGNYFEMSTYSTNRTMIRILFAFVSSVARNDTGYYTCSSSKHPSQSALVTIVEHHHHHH

[2] = target: T2, Flt3D1-D4, recombinant human Flt3 ectodomain variant (residues 27-434) with C-terminal hexahistidine tag (human) (UniProt P36888); test: ITC
T2 sequence (chain, N-linked glycosylation (glycosylated protein from HEK293 cells)): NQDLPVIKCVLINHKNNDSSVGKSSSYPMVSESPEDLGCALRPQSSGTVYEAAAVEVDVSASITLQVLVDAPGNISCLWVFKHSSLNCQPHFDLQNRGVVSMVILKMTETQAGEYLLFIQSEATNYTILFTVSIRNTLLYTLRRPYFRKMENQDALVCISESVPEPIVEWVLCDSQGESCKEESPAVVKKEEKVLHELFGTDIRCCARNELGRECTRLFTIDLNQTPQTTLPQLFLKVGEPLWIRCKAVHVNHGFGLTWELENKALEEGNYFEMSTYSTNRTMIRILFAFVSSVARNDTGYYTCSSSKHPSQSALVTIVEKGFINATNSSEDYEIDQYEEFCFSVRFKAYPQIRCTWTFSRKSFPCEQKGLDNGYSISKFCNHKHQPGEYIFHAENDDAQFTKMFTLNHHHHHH

[3] = target: T2, Flt3D1-D4, recombinant human Flt3 ectodomain variant (residues 27-434) with C-terminal hexahistidine tag (human); test: crystal structure of the Flt3D1-D4:FL complex
[4] = target: T2, Flt3D1-D4, recombinant human Flt3 ectodomain variant (residues 27-434) with C-terminal hexahistidine tag (human); test: size-exclusion chromatography, shift to a single faster migrating peak
[5] = target: T1, Flt3D1-D3, recombinant human Flt3 ectodomain variant (residues 27-346) with C-terminal hexahistidine tag (human); test: size-exclusion chromatography of the mixture at the end of an ITC experiment (Absorbance280 against elution volume) with Coomassie-stained SDS-PAGE
[6] = target: T1, Flt3D1-D3, recombinant human Flt3 ectodomain variant (residues 27-346) with C-terminal hexahistidine tag (human); test: analytical and preparative size-exclusion chromatography
[7] = target: T2, Flt3D1-D4, recombinant human Flt3 ectodomain variant (residues 27-434) with C-terminal hexahistidine tag (human); test: as above
[8] = target: T2, Flt3D1-D4, recombinant human Flt3 ectodomain variant (residues 27-434) with C-terminal hexahistidine tag (human); test: size-exclusion chromatography (Absorbance280 against elution volume) with Coomassie-stained SDS-PAGE of the peak fraction

Measured: binding

B1: recombinant human FL (fms-like tyrosine kinase receptor-3 ligand) produced in E. coli (ligand)
chain: TQDCSFQHSPISSDFAVKIRELSDYLLQDYPVTVASNLQDEELCGGLWRLVLAQRWMERLKTVAGSKMQGLLERVNTEIHFVTKCAFQPPPSCLRFVQTNISRLLQETSEQLVALKPWITRQNFSRCLELQCQP
notes: Dimeric cytokine; also called Flt3 ligand; cognate ligand
binds: all assays above

— patent publication US20130288373A1 (published 2013)
